Measured values: doi:10.1101/526509

Sequences of proteins named here, by UniProt entry; tags and fusion partners are left off. Residues count along the entry.
UniProt P68511: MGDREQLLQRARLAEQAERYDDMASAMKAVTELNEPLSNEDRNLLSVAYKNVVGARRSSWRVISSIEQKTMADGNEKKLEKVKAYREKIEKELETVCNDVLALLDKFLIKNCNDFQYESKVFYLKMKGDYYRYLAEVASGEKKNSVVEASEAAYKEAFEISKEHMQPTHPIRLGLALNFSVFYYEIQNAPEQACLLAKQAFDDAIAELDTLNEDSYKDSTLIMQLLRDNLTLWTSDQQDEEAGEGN
UniProt D3ZCV0: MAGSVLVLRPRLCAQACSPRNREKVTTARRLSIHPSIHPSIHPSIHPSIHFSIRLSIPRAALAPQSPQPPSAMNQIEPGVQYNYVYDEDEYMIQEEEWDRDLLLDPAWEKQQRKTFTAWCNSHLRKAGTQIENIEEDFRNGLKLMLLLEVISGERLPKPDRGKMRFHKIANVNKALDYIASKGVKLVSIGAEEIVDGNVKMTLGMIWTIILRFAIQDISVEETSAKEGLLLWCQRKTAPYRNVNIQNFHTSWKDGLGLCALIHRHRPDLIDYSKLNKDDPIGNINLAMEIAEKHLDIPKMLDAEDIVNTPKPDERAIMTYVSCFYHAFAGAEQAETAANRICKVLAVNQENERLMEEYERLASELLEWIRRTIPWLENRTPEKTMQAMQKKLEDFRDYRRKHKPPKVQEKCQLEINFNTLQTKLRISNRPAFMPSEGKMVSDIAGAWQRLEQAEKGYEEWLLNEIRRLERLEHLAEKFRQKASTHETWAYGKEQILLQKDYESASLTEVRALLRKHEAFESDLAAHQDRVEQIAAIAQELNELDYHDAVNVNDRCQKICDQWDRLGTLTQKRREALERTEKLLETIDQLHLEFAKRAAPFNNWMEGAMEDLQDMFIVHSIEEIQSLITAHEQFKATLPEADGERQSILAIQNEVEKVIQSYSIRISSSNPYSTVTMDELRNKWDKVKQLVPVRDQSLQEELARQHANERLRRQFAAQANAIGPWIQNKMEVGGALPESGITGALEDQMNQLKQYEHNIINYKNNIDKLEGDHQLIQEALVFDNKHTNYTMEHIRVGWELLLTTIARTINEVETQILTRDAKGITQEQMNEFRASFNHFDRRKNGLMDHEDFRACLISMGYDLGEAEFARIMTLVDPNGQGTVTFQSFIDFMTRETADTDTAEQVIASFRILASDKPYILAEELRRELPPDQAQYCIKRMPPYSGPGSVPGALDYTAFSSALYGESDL
UniProt Q9QXQ0: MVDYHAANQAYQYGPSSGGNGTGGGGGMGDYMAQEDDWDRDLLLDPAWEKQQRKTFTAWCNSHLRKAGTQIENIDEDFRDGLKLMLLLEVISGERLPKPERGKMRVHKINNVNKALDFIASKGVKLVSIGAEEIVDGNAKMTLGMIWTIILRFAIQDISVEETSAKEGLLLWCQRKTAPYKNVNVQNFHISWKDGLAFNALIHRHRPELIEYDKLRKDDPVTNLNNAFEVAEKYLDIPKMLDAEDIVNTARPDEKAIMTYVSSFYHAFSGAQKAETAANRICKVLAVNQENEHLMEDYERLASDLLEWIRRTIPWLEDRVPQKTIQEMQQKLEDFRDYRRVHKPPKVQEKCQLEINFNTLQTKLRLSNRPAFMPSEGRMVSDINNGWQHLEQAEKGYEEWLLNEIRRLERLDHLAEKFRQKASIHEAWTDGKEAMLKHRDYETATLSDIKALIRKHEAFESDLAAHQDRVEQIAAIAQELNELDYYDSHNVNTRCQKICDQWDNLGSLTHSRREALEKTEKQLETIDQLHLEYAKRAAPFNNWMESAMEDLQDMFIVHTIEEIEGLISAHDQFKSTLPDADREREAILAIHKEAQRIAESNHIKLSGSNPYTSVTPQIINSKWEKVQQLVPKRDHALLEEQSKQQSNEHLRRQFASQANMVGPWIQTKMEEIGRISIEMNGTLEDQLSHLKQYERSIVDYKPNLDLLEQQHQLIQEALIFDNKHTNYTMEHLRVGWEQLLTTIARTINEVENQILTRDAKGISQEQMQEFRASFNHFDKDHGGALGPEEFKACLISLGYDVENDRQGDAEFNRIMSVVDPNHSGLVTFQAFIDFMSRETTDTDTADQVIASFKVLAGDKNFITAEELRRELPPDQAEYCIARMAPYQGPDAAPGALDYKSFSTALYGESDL
UniProt Q68FP1, residues 26-780: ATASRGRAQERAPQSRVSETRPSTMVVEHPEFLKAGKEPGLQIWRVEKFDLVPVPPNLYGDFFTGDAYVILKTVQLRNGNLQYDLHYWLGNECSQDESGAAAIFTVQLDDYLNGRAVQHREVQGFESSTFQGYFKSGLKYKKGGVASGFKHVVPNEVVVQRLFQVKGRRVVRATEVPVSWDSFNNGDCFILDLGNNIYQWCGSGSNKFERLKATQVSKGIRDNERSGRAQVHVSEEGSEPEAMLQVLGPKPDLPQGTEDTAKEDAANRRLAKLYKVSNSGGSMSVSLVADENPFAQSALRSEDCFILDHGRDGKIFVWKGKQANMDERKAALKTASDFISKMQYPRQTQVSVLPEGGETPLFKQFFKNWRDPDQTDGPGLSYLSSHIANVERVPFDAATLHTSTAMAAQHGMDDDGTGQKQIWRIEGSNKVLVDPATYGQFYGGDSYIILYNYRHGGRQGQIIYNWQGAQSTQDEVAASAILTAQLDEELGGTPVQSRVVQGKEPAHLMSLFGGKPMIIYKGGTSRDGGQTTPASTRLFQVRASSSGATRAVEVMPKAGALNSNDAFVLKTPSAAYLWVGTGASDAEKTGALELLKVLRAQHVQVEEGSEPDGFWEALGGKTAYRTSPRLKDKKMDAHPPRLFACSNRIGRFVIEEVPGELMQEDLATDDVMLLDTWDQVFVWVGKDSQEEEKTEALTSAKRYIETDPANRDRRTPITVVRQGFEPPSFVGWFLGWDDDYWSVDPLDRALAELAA
UniProt Q9QYF3: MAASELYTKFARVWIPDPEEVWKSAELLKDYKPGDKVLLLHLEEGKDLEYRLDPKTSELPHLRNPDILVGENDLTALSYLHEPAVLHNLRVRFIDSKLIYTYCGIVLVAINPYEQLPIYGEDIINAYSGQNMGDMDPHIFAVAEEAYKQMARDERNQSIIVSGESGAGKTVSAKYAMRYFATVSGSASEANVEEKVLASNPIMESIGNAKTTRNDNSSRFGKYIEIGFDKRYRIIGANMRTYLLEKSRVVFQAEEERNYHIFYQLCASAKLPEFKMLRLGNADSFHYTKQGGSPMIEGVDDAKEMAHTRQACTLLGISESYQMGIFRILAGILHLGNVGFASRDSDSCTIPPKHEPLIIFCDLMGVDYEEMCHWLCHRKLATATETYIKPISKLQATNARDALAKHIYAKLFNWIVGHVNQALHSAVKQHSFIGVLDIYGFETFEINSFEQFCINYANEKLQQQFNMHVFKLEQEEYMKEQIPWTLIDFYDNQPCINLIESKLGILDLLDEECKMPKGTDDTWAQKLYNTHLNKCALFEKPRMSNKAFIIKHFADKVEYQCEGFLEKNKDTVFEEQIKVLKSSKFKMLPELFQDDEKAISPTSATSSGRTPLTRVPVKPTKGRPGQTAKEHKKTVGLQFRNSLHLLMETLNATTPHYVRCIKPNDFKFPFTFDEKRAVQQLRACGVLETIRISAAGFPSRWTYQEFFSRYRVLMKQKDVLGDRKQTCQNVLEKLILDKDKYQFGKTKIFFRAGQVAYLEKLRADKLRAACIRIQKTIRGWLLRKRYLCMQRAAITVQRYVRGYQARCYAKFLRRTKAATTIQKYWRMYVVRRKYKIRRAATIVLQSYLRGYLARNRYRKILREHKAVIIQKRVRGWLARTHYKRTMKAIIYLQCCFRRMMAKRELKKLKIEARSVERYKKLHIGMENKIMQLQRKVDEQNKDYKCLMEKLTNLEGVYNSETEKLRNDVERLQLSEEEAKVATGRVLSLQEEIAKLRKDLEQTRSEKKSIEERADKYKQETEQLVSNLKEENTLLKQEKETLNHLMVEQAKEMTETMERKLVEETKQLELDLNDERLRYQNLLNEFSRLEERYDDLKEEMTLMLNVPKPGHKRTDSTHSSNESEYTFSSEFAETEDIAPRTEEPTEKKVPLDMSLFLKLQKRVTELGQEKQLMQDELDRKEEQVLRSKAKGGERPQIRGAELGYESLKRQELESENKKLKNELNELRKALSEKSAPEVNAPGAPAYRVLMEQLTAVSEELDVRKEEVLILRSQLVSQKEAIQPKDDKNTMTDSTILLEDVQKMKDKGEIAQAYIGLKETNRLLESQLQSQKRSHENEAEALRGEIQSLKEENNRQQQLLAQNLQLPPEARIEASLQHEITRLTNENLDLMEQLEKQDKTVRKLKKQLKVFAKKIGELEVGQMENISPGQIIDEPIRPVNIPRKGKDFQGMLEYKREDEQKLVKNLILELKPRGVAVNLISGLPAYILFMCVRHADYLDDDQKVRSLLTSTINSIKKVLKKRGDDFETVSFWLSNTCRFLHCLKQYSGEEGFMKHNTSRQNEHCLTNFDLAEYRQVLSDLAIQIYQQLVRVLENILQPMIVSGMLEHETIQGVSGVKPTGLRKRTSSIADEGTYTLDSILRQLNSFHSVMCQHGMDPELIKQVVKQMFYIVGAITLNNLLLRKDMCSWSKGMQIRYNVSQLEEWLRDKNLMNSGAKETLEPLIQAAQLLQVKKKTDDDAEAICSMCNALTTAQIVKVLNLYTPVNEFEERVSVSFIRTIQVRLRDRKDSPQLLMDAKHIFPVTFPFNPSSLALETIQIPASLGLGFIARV
UniProt P70569: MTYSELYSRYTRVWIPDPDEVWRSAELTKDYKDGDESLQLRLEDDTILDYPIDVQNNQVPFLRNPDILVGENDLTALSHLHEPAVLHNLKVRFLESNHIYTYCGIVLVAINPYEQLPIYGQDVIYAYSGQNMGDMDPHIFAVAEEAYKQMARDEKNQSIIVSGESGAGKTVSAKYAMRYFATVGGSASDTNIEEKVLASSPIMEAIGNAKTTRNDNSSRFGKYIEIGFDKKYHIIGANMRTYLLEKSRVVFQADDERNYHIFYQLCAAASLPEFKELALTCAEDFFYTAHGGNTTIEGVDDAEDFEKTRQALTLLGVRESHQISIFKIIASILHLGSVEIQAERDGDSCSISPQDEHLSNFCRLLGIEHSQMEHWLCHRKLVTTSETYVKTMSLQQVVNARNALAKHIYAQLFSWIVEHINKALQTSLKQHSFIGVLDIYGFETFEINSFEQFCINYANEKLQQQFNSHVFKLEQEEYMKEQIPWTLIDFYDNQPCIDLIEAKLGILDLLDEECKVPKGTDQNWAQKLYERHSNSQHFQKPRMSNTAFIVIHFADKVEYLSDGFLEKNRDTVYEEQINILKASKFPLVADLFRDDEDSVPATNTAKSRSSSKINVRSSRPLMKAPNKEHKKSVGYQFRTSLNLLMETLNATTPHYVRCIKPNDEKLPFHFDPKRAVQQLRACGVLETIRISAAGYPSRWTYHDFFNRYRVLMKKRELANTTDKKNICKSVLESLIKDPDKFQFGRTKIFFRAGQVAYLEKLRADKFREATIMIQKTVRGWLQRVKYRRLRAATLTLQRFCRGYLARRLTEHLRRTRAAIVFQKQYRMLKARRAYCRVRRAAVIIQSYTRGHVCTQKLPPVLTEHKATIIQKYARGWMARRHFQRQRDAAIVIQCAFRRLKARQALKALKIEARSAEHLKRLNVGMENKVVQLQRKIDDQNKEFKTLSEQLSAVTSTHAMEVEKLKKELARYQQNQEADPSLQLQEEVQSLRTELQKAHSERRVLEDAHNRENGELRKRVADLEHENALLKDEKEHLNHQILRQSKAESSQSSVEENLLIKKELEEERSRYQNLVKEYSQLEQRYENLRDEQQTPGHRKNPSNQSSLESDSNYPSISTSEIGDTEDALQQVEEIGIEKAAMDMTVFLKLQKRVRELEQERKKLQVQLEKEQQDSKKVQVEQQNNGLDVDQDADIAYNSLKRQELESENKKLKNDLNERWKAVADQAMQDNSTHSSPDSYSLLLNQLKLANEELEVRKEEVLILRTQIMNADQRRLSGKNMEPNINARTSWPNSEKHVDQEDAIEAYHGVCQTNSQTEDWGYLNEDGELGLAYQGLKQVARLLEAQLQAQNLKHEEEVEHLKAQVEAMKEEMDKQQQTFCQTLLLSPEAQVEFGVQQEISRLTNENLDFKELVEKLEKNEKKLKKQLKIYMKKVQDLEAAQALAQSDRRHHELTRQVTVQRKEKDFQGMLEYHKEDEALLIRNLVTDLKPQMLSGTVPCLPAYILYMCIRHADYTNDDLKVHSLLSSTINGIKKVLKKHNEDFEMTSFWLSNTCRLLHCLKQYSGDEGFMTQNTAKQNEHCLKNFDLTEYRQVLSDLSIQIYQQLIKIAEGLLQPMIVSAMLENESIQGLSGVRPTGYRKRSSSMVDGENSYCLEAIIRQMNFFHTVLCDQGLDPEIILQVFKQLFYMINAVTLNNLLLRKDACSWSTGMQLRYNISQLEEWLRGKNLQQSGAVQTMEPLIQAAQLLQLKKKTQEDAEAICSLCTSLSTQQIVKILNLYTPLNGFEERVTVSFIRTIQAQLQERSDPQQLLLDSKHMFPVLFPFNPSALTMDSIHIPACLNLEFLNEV

T1: bio-GFP-synaptopodin (mouse) (UniProt Q8CC35)
T1 sequence (chain, biotin (biotinylated; HA-BirA co-expressed)): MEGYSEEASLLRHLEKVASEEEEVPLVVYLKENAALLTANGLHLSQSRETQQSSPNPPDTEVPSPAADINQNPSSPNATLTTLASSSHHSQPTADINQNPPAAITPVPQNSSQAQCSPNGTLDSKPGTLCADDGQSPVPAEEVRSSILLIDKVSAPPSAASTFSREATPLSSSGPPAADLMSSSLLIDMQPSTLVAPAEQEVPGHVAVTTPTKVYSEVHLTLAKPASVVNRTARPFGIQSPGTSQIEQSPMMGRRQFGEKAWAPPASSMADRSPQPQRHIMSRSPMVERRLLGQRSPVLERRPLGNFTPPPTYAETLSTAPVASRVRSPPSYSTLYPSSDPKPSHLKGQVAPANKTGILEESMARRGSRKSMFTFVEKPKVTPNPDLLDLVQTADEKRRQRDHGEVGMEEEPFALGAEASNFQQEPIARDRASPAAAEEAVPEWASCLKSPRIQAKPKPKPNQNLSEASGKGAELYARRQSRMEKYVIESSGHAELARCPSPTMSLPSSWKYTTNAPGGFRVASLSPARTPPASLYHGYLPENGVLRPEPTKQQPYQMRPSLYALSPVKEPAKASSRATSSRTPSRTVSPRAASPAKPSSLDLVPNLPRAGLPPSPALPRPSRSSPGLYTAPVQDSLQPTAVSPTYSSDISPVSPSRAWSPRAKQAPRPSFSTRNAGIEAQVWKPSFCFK

B1: tropomodulin (Tmod2) (protein, UniProt P70566 1-351)
chain: MALPFQKGLEKYKNIDEDELLGKLSEEELKQLENVLDDLDPESATLPAGFRQKDQTQKAATGPFDREHLLMYLEKEALEQKDREDFVPFTGEKKGRVFIPKEKPVETRKEEKVTLDPELEEALASASDTELYDLAAVLGVHNLLNNPKFDEETTNGQGRKGPVRNVVKGEKAKPVFEEPPNPTNVEASLQQMKANDPSLQEVNLNNIKNIPIPTLKEFAKALETNTHVRKFSLAATRSNDPVALAFAEMLKVNKTLKSLNVESNFITGAGILALVEALRENDTLTEIKIDNQRQQLGTAVEMEIAQMLEENSRILKFGYQFTKQGPRTRVAAAITKNNDLVRKKRVEGDRR
B2: coronin (Coro2b) (protein, UniProt F1LMV9 1-480)
chain: MTVTKMSWRPQYRSSKFRNVYGKVANREHCFDGIPITKNVHDNHFCAVNARFLAIVTESAGGGSFLVIPLEQTGRIEPNYPKVCGHQGNVLDIKWNPFIDNIIASCSEDTSVRIWEIPEGGLKRNMTEALLELHGHSRRVGLVEWHPTTNNILFSAGYDYKVLIWNLDIGEPVKMIDCHTDVILCMSFNTDGSLLTTTCKDKKLRVIEPRSGRVLQEANCKNHRVNRVVFLGNMKRLLTTGVSRWNTRQIALWDQEDLSMPMIEEEIDGLSGLLFPFYDADTHMLYLAGKGDGNIRYYEISTEKPYLSYLMEFRSPAPQKGLGVMPKHGLDVSACEVFRFYKLVTLKGLIEPISMIVPRRSDSYQEDIYPMTPGTEPALTPDEWLGGVNRDPVLMSLKEGYKKSSKVVFKAPIREKKSVVVNGIDLLENVPPRTENELLRMFFRQQDEIRRLKEELAQKDIRLRQLQLELKNLRNNPKNC

Tests used:
[1] = biological target: T1, bio-GFP-synaptopodin (mouse); experiment: affinity purification with mass spectrometry
[2] = biological target: T1, bio-GFP-synaptopodin (mouse); experiment: affinity purification with mass spectrometry; remark: listed apart in the source

| Molecule | binding [1] | binding [2] |
| --- | --- | --- |
| 14-3-3 eta (from UniProt P68511 1-246) | binds | – |
| CamKIIβ (from UniProt P08413 1-542) (enzyme) | binds | – |
| Sipa1l1 (from UniProt O35412 1-1822) | binds | – |
| actinin (Actn2) (from UniProt D3ZCV0 1-967) | binds | – |
| actinin (Actn4) (from UniProt Q9QXQ0 1-911) | binds | – |
| coronin (Coro2a) (rat (endogenous in rat brain lysate)) | binds | – |
| gelsolin (Gsn) (from UniProt Q68FP1 26-780) | binds | – |
| myosin Id (from UniProt Q63357 1-1006) | binds | – |
| myosin Va (from UniProt Q9QYF3 1-1828) | binds | – |
| myosin Vb (from UniProt P70569 1-1846) | binds | – |
| tropomodulin (Tmod3) (rat (endogenous in rat brain lysate)) | binds | – |
| B1 | – | binds |
| B2 | – | binds |

Like-named read-outs stand apart in the source and are kept apart here. No constants are given. Whether binding was seen depends on the method and setting. In cells and extracts the contact can be indirect. A yes stands for co-enrichment or nearness to the bait. Other partners may have been found. Where a sequence is shown, tags or fusion partners need not be part of it.
